Source: US11084781B2, “Diarylureas as CB1 allosteric modulators” (Research Triangle Institute, priority 2017, dated 2021)

Chains of the proteins cited; added tags and fusions are not shown.
UniProt P21554, whole entry: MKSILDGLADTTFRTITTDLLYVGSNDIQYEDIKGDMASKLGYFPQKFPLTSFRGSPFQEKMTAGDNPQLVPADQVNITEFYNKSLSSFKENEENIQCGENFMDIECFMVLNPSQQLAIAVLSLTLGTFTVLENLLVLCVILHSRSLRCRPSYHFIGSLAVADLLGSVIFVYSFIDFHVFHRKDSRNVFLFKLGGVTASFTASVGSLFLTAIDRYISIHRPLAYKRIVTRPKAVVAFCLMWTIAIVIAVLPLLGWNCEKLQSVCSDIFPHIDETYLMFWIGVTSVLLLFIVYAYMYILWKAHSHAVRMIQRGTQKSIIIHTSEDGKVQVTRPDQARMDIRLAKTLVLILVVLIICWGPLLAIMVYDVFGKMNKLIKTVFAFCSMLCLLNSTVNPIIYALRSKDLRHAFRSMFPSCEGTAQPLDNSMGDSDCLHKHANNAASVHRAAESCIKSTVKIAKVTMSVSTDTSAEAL

What was measured:
human CB1 receptor [1] = target: T1, human CB1 receptor (Homo sapiens, UniProt P21554); test: CB1 calcium mobilization assay (antagonist mode, against EC80 of CP55,940); assay type: cell-based; conditions: read-out: CB1 calcium assay IC50; Table 2; against EC80 (100 nM) of CP55,940; mean ± S.E.M.
human CB1 receptor [2] = target: T1, human CB1 receptor; test: CB1 calcium mobilization assay, agonist screen; assay type: cell-based; conditions: Table 2; 10,000 nM final concentration; mean ± SD

O=C(Nc1ccc(Cl)cc1)Nc1ccc(-c2cccc(N3CCCC3)n2)cc1
IC50 (human CB1 receptor [1]): 0.219 µM
CB1 calcium assay Agonist screen (% CP55, 940 Emax) (human CB1 receptor [2]): 23 ± 5 % CP55, 940 Emax

The match of structure and compound is tentative.
